According to PubChem BioAssay AID1347131 (National Center for Advancing Translational Sciences (NCATS), 2019):
The campaign covered roughly 410,000 compounds. About 2,000 (0.49%) were called active. Inconclusive means that the source gave no clear call. Such entries were picked first, then a sample of the others. Calls come from the whole dose curve; tested in HEK293 reporter line. Potencies beside an inconclusive call are fits to weak or partial responses and may not hold up.
Potency is the fitted concentration of half-maximal effect.

Assay: qHTS Assay for Foot and Mouth Disease Virus Antivirals: Primary Screen against the MLPCN compound library; note: nearly all actives have a fitted effect of over 55% in size
Settings: FMDV antiviral cell-based qHTS; activity, negative = inhibition: at 57.9 µM (top of the series)
For CC(NC(=O)c1cc(COc2ccc3ncccc3c2)on1)c1ccc(F)cc1 (stereo not drawn), the Potency was inconclusive: 1.78 µM [inhibitor, partial curve, poor fit].
With COC(=O)c1cc(=O)n(Cc2ccc(OC)c(OC)c2)c(=Nc2ccc(F)cc2)s1 the Potency was inconclusive: 12.6 µM [inhibitor, partial curve, poor fit].
For O=C(c1cc(-c2ccc(Cl)cc2)on1)N1CCCC1, the Potency was inconclusive: 17.8 µM [inhibitor, partial curve].
With C/C=C/CSc1nc2c(c(=O)[nH]c(=O)n2C)n1CCC the activity, negative = inhibition was inconclusive: -31.1% [inhibitor].
For Cc1ccc(S(=O)(=O)c2nc(NCc3ccc4c(c3)OCO4)sc2Cl)cc1, the Potency was inconclusive: 7.08 µM [inhibitor, partial curve, poor fit].
With Cn1cc([N+](=O)[O-])c(C(=O)Nc2ccc(-c3nc4ccccc4o3)cc2)n1 the Potency was inconclusive: 39.8 µM [inhibitor, single point].
With O=[N+]([O-])c1ccc(Sc2nc3ccccc3o2)c([N+](=O)[O-])c1 the Potency was inconclusive: 35.5 µM [inhibitor, partial curve, poor fit].
For CCN(CC)S(=O)(=O)c1ccc(N2CCOCC2)c(C(=O)O)c1, the Potency was inconclusive: 39.8 µM [inhibitor, partial curve, poor fit].
With CC(C)(C)NC(=O)c1ccc(COc2ccc(Cl)cc2Cl)o1 the “activity, negative = inhibition” value was inactive: -39.1%.
For COc1ccc(-c2cc3cc(C(=O)O)ccn3c2C(=O)c2ccccc2)cc1, the activity, negative = inhibition was inconclusive: -107% [inhibitor].
In the case of Cc1ccc(S(=O)(=O)N(CCCO)CC(O)CON=C2c3ccccc3-c3ccccc32)cc1 (stereo not drawn), the Potency is reported as inconclusive: 35.5 µM [inhibitor, partial curve, poor fit].
With COc1ccc(N(CC(=O)NCc2ccc(C)cc2)S(=O)(=O)c2c(C)noc2C)cc1 the Potency was inconclusive: 15.8 µM [inhibitor, partial curve].
In the case of Cc1ccc(CSCC(=O)N2CCN(Cc3ccc4c(c3)OCO4)CC2)cc1, the “activity, negative = inhibition” value is reported as inactive: -35.9%.
For CCOc1ccccc1NC1=C(OC)C(=O)C(Nc2ccccc2OCC)=C(OC)C1=O, the activity, negative = inhibition was inconclusive: -33.3% [inhibitor].
For N/C(=N\OC(=O)c1ccc(F)cc1)c1ccccc1, the Potency was inconclusive: 39.8 µM [inhibitor, single point].
For COc1cccc(NC(=O)c2cnc(SCC(=O)N3CCOCC3)n(C)c2=O)c1, the Potency was inconclusive: 22.4 µM [inhibitor, partial curve, poor fit].
For COc1ccc(NC(=S)Nc2nc(CC(=O)Nc3ccccc3OC)cs2)cc1, the Potency was inconclusive: 22.4 µM [inhibitor, partial curve, poor fit].
For CCc1cc(C(=O)N2CCN(S(=O)(=O)c3ccccc3F)CC2)sc1C, the Potency was inconclusive: 14.1 µM [inhibitor, single point].
In the case of COc1cc(C(=O)N/N=C/c2ccc(OC(=O)c3cccc(C)c3)cc2)ccc1O, the Potency is reported as inconclusive: 35.5 µM [inhibitor, partial curve, poor fit].
In the case of COc1ccc2[nH]c3nc(SCC(=O)NNC(=O)c4ccc(OC)c(OC)c4)nnc3c2c1, the Potency is reported as inconclusive: 7.08 µM [inhibitor, partial curve, poor fit].
With COc1ccc(C2C(C#N)=C(N)Oc3cc(O)ccc32)cc1Cl (stereo not drawn) the Potency was inconclusive: 15.8 µM [inhibitor, partial curve].
With CC(=O)c1c(C)[nH]c(C(=O)COc2ccc3ccc(=O)oc3c2)c1C the Potency was inconclusive: 28.2 µM [inhibitor, partial curve, poor fit].
For Cc1c(N2C(=O)/C(=C/C3CC=CCC3)SC2=S)c(=O)n(-c2ccccc2)n1C (stereo not drawn), the Potency was inconclusive: 17.8 µM [inhibitor, partial curve, poor fit].
For C=CC[n+]1ccc(/C=C2\C=Cc3cc(C)ccc3N2CC)c2ccccc21, the Potency was inconclusive: 35.5 µM [inhibitor, partial curve, poor fit].
In the case of O=C1C(=O)c2ccc(-c3ccccc3)cc2-c2ccccc21, the Potency is reported as inconclusive: 14.1 µM [inhibitor, partial curve, poor fit].
In the case of O=C(Nc1ccc(Cl)cc1C(=O)Nc1ccccn1)c1ccco1, the Potency is reported as inconclusive: 10 µM [inhibitor, partial curve].
For CCCC[n+]1c2ccccc2cc2ccccc21, the Potency was inconclusive: 28.2 µM [inhibitor, partial curve, poor fit].
With OC(COC(c1ccc(Cl)cc1)c1ccc(Cl)cc1)CN1CCc2ccccc2C1 (stereo not drawn) the Potency was inconclusive: 20 µM [inhibitor, partial curve, poor fit].
In the case of CCOC(=O)c1csc(NC(=O)c2ccc3c(c2)OCCO3)n1, the Potency is reported as inconclusive: 39.8 µM [inhibitor, single point].
For Cc1ccc(-c2ccnc3nc(Sc4ncc(C(F)(F)F)cc4Cl)nn23)cc1, the “activity, negative = inhibition” value was inactive: -40.4%.
For COc1ccc(C(=O)/C=C/Nc2cc(C)ccn2)cc1, the Potency was inconclusive: 14.1 µM [inhibitor, single point].
For Cn1c(-c2ccccc2)cnc1SCc1nc2ccccc2c(=O)[nH]1, the Potency was inconclusive: 35.5 µM [inhibitor, single point].
For CCOc1ccccc1NC(=O)COc1ccc(S(=O)(=O)N2CCCC2)cc1, the Potency was inconclusive: 10 µM [inhibitor, partial curve, poor fit].
For CCc1c(C)c2ccc(O)c(CN3CCN(c4ccccc4)CC3)c2oc1=O, the “activity, negative = inhibition” value was inactive: -32.6%.
In the case of Cc1cccc(NC(=O)c2ccc3c(=O)n4c(nc3c2)CCCCC4)n1, the Potency is reported as active: 12.6 µM.
With O=[N+]([O-])c1ccc(/C=[N+](\[O-])[C@@H]2CCCC[C@@H]2/[N+]([O-])=C/c2ccc([N+](=O)[O-])o2)o1 the Potency was inconclusive: 31.6 µM [inhibitor, partial curve, poor fit].
In the case of CCC(=O)Nc1ccc(C2C(=O)c3ccccc3C2=O)cc1, the Potency is reported as inconclusive: 20 µM [inhibitor, partial curve, poor fit].
With CCOC(=O)Cc1csc(NC(=O)c2ccc(N3CCOCC3)cc2[N+](=O)[O-])n1 the Potency was inconclusive: 17.8 µM [inhibitor, partial curve, poor fit].
In the case of COc1ccc(N2CCN(c3ncnc4c3nc3n4CCCCC3)CC2)cc1, the Potency is reported as inconclusive: 11.2 µM [inhibitor, partial curve, poor fit].
In the case of O=C(O)CSc1cc(NS(=O)(=O)c2cccc([N+](=O)[O-])c2)c2ccccc2c1O, the Potency is reported as inconclusive: 10 µM [inhibitor, partial curve, poor fit].
For O=C(Nc1nc2cc3c(cc2s1)OCO3)c1ccco1, the Potency was inconclusive: 14.1 µM [inhibitor, single point].
With Cc1nn2c(NCCCN3CCOCC3)c3c(nc2c1-c1ccccc1)CCC3 the Potency was inconclusive: 15.8 µM [inhibitor, partial curve, poor fit].
In the case of COc1ccc(CCN2CC(O)=C(c3nc(C)cs3)C2=N)cc1OC, the Potency is reported as inconclusive: 8.91 µM [inhibitor, full curve].
In the case of N#Cc1cc(-c2ccccc2)[nH]c1-c1nccc2ccccc12, the Potency is reported as inconclusive: 28.2 µM [inhibitor, partial curve, poor fit].
With COc1ccc(C(C(=O)NC2CCCCC2)N(C(=O)CCl)c2ccc(Cl)cc2)cc1 (stereo not drawn) the Potency was inconclusive: 15.8 µM [inhibitor, partial curve, poor fit].
In the case of COc1ccc(/C=C/c2noc(-c3ccccc3OC(C)=O)n2)cc1, the Potency is reported as inconclusive: 39.8 µM [inhibitor, single point].
With O=C(COc1ccccc1[N+](=O)[O-])Nc1cccc(Cl)c1N1CCOCC1 the Potency was inconclusive: 39.8 µM [inhibitor, partial curve, poor fit].
For CCN(CC)CCOC(=O)c1ccc(NC(=O)C(C)NC(=O)C23CC4CC(CC(C4)C2)C3)cc1 (stereo not drawn), the Potency was inconclusive: 3.16 µM [inhibitor, full curve].
In the case of COc1ccc(-c2cc(-c3nc4ccccn4c3NCc3ccccc3)ccc2OC)cc1, the Potency is reported as inconclusive: 3.55 µM [inhibitor, partial curve, poor fit].
In the case of CCN(CC)S(=O)(=O)c1ccc(NN=C(C#N)C#N)cc1, the Potency is reported as inconclusive: 10 µM [inhibitor, partial curve, poor fit].
For O=C(NCc1ccc(Cl)cc1)C(=O)NCC1OCCN1C(=O)c1ccc(Cl)cc1 (stereo not drawn), the Potency was inconclusive: 14.1 µM [inhibitor, partial curve, poor fit].
For COc1ccccc1NC(=O)c1nc(S(=O)(=O)Cc2ccccc2)ncc1Cl, the Potency was inconclusive: 28.2 µM [inhibitor, partial curve, poor fit].
In the case of O=C(C1CCCN(S(=O)(=O)c2ccc(F)cc2)C1)N1CCCC1 (stereo not drawn), the Potency is reported as inconclusive: 10 µM [inhibitor, partial curve].
For C=C1C(=O)OC2C=C(CO)C3OC3C3OC3(C)CC(OC(=O)/C(=C/C)COC(C)=O)C12 (stereo not drawn), the Potency was inconclusive: 7.94 µM [inhibitor, full curve, poor fit].
For CCOC(=O)C1(CCc2ccccc2)CCN(Cc2c(O)cccc2OC)CC1, the Potency was inconclusive: 31.6 µM [inhibitor, partial curve, poor fit].
In the case of Cc1ccc(C(=O)Nc2cccc(C(=O)O)c2)cc1S(=O)(=O)N1CCCCC1, the Potency is reported as inconclusive: 15.8 µM [inhibitor, single point].
With C=CCOC(=O)C1=C(C)Nc2ncnn2C1c1cc(Br)ccc1F (stereo not drawn) the Potency was inconclusive: 12.6 µM [inhibitor, partial curve, poor fit].
For O=C(c1ccncc1)N1CCC2(CC1)CN(c1ccc(-c3ccccc3)cc1)C2, the Potency was inconclusive: 5.01 µM [inhibitor, partial curve].
